Reference: patent publication US20230103330A1, “MECHANISTIC BIOMARKER FOR PREDICTING THE SURVIVAL OF PANCREATIC CANCER PATIENTS” (The Regents of the University of California, priority 2020, published 2023)
Results are given in words; binding and its absence hold for the method and conditions named. For some assays here: In cells and extracts the contact can be indirect. Some entries that bind do so weakly or less than the wild type. Tags and fused reporters may be left off the sequences shown.

Sequences of proteins named here, by UniProt entry; tags and fusion partners are left off. A change or cut given only in a name is not applied to a line headed by its entry. A line that says so, or that is headed by a name, gives the form on record, which may keep a tag or linker.
HA-PKCβII K371R (kinase-dead) (P68403, form named): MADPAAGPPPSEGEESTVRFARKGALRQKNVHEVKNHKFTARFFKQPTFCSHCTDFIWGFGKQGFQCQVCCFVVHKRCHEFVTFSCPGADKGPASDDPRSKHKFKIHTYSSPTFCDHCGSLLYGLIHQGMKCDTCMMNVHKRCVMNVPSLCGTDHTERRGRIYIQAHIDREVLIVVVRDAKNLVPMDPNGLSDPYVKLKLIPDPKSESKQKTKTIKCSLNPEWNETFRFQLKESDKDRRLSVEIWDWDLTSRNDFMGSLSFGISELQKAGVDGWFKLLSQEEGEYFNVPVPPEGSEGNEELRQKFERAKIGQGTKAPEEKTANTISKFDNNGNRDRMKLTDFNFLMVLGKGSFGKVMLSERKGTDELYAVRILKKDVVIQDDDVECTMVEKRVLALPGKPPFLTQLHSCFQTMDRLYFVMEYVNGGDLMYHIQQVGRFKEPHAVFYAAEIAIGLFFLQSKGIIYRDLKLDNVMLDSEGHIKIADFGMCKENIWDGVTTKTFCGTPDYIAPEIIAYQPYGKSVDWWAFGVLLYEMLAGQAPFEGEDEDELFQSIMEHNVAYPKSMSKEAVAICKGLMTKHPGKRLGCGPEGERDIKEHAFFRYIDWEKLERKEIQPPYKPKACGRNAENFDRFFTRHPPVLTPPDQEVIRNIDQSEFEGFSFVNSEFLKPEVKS
HA-PKCβII wild type, faster-mobility unphosphorylated species of 35S-labeled (newly synthesized) PKC (P68403, form named): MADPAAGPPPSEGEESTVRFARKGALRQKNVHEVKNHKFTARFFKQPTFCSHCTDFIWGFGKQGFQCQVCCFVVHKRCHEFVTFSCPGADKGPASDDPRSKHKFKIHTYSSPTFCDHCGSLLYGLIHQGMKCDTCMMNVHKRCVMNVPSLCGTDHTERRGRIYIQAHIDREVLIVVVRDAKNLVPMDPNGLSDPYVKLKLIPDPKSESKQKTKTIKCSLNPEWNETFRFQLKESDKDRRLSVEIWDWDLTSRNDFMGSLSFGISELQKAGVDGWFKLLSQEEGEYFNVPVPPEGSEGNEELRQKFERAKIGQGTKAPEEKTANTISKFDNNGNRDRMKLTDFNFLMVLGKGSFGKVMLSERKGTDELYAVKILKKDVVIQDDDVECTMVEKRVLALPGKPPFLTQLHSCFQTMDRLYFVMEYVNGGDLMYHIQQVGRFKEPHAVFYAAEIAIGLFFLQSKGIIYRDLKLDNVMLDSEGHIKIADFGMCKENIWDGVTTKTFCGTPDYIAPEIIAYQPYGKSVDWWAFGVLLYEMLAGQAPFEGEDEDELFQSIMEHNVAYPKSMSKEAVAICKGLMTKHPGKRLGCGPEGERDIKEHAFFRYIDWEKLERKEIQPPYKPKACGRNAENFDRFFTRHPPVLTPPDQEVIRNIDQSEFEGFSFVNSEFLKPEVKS

Key:
[1] = target: HA-PKCβII K371R (kinase-dead) (rat) (UniProt P68403); test: co-immunoprecipitation (FLAG IP) from COS7 cells, immunoblot
[2] = target: HA-PKCβII wild type, faster-mobility unphosphorylated species of 35S-labeled (newly synthesized) PKC (rat) (UniProt P68403); test: 35S pulse-chase in COS7 cells, FLAG immunoprecipitation, autoradiography

B1: FLAG-PHLPP1 (PH domain and leucine rich repeat protein phosphatase 1) (enzyme, UniProt O60346-2 1-1205, looked up, not shown: small tags and cut ends)
chain: MDSEIGCLIRFYAGKPHSTGSSERIQLSGMYNVRKGKMQLPVNRWTRRQVILCGTCLIVSSVKDSLTGKMHVLPLIGGKVEEVKKHQHCLAFSSSGPQSQTYYICFDTFTEYLRWLRQVSKVASQRISSVDLSCCSLEHLPANLFYSQDLTHLNLKQNFLRQNPSLPAARGLNELQRFTKLKSLNLSNNHLGDFPLAVCSIPTLAELNVSCNALRSVPAAVGVMHNLQTFLLDGNFLQSLPAELENMKQLSYLGLSFNEFTDIPEVLEKLTAVDKLCMSGNCVETLRLQALRKMPHIKHVDLRLNVIRKLIADEVDFLQHVTQLDLRDNKLGDLDAMIFNNIEVLHCERNQLVTLDICGYFLKALYASSNELVQLDVYPVPNYLSYMDVSRNRLENVPEWVCESRKLEVLDIGHNQICELPARLFCNSSLRKLLAGHNQLARLPERLERTSVEVLDVQHNQLLELPPNLLMKADSLRFLNASANKLESLPPATLSEETNSILQELYLTNNSLTDKCVPLLTGHPHLKILHMAYNRLQSFPASKMAKLEELEEIDLSGNKLKAIPTTIMNCRRMHTVIAHSNCIEVFPEVMQLPEIKCVDLSCNELSEVTLPENLPPKLQELDLTGNPRLVLDHKTLELLNNIRCFKIDQPSTGDASGAPAVWSHGYTEASGVKNKLCVAALSVNNFCDNREALYGVFDGDRNVEVPYLLQCTMSDILAEELQKTKNEEEYMVNTFIVMQRKLGTAGQKLGGAAVLCHIKHDPVDPGGSFTLTSANVGKCQTVLCRNGKPLPLSRSYIMSCEEELKRIKQHKAIITEDGKVNGVTESTRILGYTFLHPSVVPRPHVQSVLLTPQDEFFILGSKGLWDSLSVEEAVEAVRNVPDALAAAKKLCTLAQSYGCHDSISAVVVQLSVTEDSFCCCELSAGGAVPPPSPGIFPPSVNMVIKDRPSDGLGVPSSSSGMASEISSELSTSEMSSEVGSTASDEPPPGALSENSPAYPSEQRCMLHPICLSNSFQRQLSSATFSSAFSDNGLDSDDEEPIEGVFTNGSRVEVEVDIHCSRAKEKEKQQHLLQVPAEASDEGIVISANEDEPGLPRKADFSAVGTIGRRRANGSVAPQERSHNVIEVATDAPLRKPGGYFAAPAQPDPDDQFIIPPELEEEVKEIMKHHQEQQQQQQPPPPPQLQPQLPRHYQLDQLPDYYDTPL
binding [1]: binds
binding [2]: binds
